Data published in US12269021B2, “Artificial protein catalyst” (Glytech, Inc., priority 2019, dated 2025).

Assay: biocompatibility: RCM of 1d in serum-containing media
Type: biochemical
Details: 37° C., 2 hours

Q: Which results are given for `C=CCC(CC=C)(COC(=O)c1ccccc1)COC(=O)c1ccccc1` [1d, 4,4-bis((benzoyloxy)methyl)-1,6-heptadiene]?
A: collected starting material (1:8:1 fetal bovine serum/DMEM medium/dioxane): 8%; collected starting material (1:8:1 normal rat serum/PBS buffer/dioxane): 3%
